Measured values published in PMC9499771.
No constants are given. Whether binding was seen depends on the method and setting. Binding seen in cells or lysates may run through a third protein. Binding can be weak; no strength is given.

The chains behind the UniProt entries cited, without tags or fusion partners. Where a name states a change or a piece, a line headed by the entry shows the natural chain unless it says otherwise. Residues count along the entry.
UniProt P12643: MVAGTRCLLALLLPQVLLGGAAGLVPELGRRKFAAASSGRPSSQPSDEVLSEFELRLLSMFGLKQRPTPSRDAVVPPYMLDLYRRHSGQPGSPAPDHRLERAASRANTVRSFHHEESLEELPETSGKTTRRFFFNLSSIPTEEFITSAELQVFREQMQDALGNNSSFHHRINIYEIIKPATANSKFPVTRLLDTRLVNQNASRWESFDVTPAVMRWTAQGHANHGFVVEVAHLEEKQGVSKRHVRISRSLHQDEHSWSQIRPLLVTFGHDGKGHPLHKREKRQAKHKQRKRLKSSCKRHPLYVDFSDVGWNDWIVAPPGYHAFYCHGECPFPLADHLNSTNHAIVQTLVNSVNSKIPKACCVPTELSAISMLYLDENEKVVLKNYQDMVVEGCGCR
UniProt P29279, residues 27-349: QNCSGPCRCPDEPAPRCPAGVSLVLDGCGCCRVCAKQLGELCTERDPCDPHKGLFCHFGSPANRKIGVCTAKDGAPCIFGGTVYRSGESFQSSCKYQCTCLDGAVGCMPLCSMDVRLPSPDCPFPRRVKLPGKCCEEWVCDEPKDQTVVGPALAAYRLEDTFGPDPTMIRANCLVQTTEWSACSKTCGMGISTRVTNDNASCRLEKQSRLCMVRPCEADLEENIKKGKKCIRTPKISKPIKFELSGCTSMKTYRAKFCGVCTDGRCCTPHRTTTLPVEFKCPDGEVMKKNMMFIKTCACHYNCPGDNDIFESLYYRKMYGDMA

Biological target: bone morphogenetic protein-2 (BMP-2) (human (endogenous in PDLSCs)) (UniProt P12643)
Test: co-IP; endogenous co-IP from PDLSC lysate (cell lysis buffer for Western and IP); protein A + G agarose with anti-CTGF antibody, anti-BMP2 antibody or rabbit control IgG, overnight at 4°C; washed 3 times with lysis buffer; Western blot

binding: binds
Substance: connective tissue growth factor 2 (CTGF) (from UniProt P29279 27-349)
